{
  "source": "patent US20140275174A1",
  "about": "“TREATMENT OF OVARIAN CANCER WITH 2-AMINO-4H-NAPHTHO[1,2-b]PYRAN-3-CARBONITRILES” (MEMORIAL SLOAN-KETTERING CANCER CENTER, priority 2011, published 2014)",
  "origin": "cited, not measured here",
  "system": "Ovcar3-GTL-derived catenae",
  "settings": "shown in WO2011/057034",
  "note": "Some results were stated once for a whole list of compounds, not compound by compound.",
  "data": [
    {"smiles": "CC(=O)O[C@H]1C(=O)[C@@]2(C)[C@H]([C@H](OC(=O)c3ccccc3)[C@]3(O)C[C@H](OC(=O)[C@H](O)[C@@H](NC(=O)c4ccccc4)c4ccccc4)C(C)=C1C3(C)C)[C@]1(OC(C)=O)CO[C@@H]1C[C@@H]2O", "note": "[paclitaxel]", "values": [
      {"measurement": "resistance in catenae conferred by formation of glycocalyx", "result": "more than 8,000,000 fold"}
    ]}
  ]
}
